The reference is the same well before dosing, and untreated signal decays as well.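 Labels refer to human fibroblasts, largely primary: uterine (C12385, HUF), lung (H6013), bone (Hs27A), adrenal (HADF), skin (WS1), plus mammary HMF and breast cancer-associated Hs343T. Cancer lines are basal-like or mesenchymal-like triple-negative breast cancer. The paper counts as hits responses shifting over 3x the replicate standard deviation. The tissue of the other fibroblasts is not given here.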
Test system: MDAMB468
Assay: relative JC-1 red fluorescence (viability) vs pre-drug, coculture with fibroblast (fraction); higher = more viable cancer cells
Description: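 JC-1 labelled TNBC cells cocultured 1:1 (1,500 cells each) with CellTrace Violet stained primary or stromal fibroblasts in 384-well plates in FluoroBrite medium, treated with one of 42 anticancer drugs at 0.1, 1, 10 or 100 uM. JC-1 red fluorescence (mitochondrial integrity in cancer cells only) was read by plate reader every 8 h for 72 h. Values are normalised to each well's pre-drug value. The stock of one drug was tenfold lower, so its dose labels may be too high.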

O=c1[nH]cc(F)c(=O)[nH]1 [Fluorouracil]
relative JC-1 red fluorescence
Settings	8 h	16 h	24 h	32 h	40 h	48 h	56 h	64 h	72 h
10 µM, coculture fibroblast: C12385	0.8767	0.79	0.755	0.702	0.663	0.649	0.613	0.585	0.575
10 µM, coculture fibroblast: H6013	0.9132	0.8267	0.8391	0.852	0.858	0.895	0.878	0.89	0.839
10 µM, coculture fibroblast: H6019	0.862	0.827	0.8122	0.7748	0.7446	0.738	0.7	0.683	0.667
10 µM, coculture fibroblast: H6076	0.93853	0.9535	0.918	0.922	0.848	0.843	0.792	0.781	0.828
10 µM, coculture fibroblast: H6231	0.831	0.953	0.883	0.87	0.816	0.785	0.733	0.714	0.701
10 µM, coculture fibroblast: HADF	0.888	0.8291	0.772	0.757	0.71	0.697	0.655	0.642	0.601
10 µM, coculture fibroblast: HCFa	0.8872	0.785	0.7451	0.7156	0.653	0.643	0.599	0.57	0.533
10 µM, coculture fibroblast: HCPF	0.888	0.9887	0.905	0.8942	0.8379	0.7983	0.74731	0.7244	0.6994
10 µM, coculture fibroblast: HHSteC	0.917	0.8621	0.83561	0.808	0.778	0.782	0.718	0.706	0.664
10 µM, coculture fibroblast: HMF	0.873	0.836	0.93	0.9	0.84	0.818	0.779	0.759	0.738
10 µM, coculture fibroblast: HPFa	0.9353	0.8663	0.83	0.7694	0.72453	0.7218	0.6677	0.6516	0.5944
10 µM, coculture fibroblast: HUF	0.929	0.859	0.802	0.753	0.699	0.674	0.629	0.622	0.607
10 µM, coculture fibroblast: Hs5	0.75	0.834	0.956	0.946	0.875	0.853	0.798	0.773	0.793
10 µM, coculture fibroblast: Hs27A	0.859	0.794	0.771	0.774	0.714	0.702	0.6599	0.6379	0.5883
10 µM, coculture fibroblast: Hs343T	0.9029	0.9854	0.89238	0.854	0.7757	0.7482	0.693	0.674	0.639
10 µM, coculture fibroblast: WS1	0.891	0.788	0.744	0.687	0.652	0.622	0.597	0.564	0.557
100 µM, coculture fibroblast: C12385	0.882	0.822	0.816	0.764	0.737	0.73	0.686	0.657	0.64
100 µM, coculture fibroblast: H6013	0.8455	0.847	0.797	0.774	0.74	0.7376	0.6979	0.68	0.617
100 µM, coculture fibroblast: H6019	0.829	0.821	0.8001	0.7498	0.71316	0.6952	0.647	0.6139	0.5855
100 µM, coculture fibroblast: H6076	0.923	0.912	0.864	0.901	0.9	0.834	0.811	0.83	0.81
100 µM, coculture fibroblast: H6231	0.836	0.923	0.873	0.86	0.798	0.785	0.743	0.723	0.722
100 µM, coculture fibroblast: HADF	0.893	0.836	0.774	0.772	0.727	0.715	0.674	0.662	0.618
100 µM, coculture fibroblast: HCFa	0.845	0.842	0.783	0.75	0.689	0.678	0.631	0.599	0.542
100 µM, coculture fibroblast: HCPF	0.9257	0.832	0.952	0.9332	0.8577	0.8349	0.782	0.767	0.755
100 µM, coculture fibroblast: HHSteC	0.877	0.855	0.815	0.792	0.758	0.755	0.704	0.682	0.635
100 µM, coculture fibroblast: HMF	0.865	0.946	0.921	0.89	0.812	0.79	0.738	0.72	0.692
100 µM, coculture fibroblast: HPFa	0.9421	0.8841	0.853	0.803	0.763	0.75921	0.6954	0.67162	0.594
100 µM, coculture fibroblast: HUF	0.901	0.8328	0.79804	0.758	0.715	0.698	0.65	0.636	0.612
100 µM, coculture fibroblast: Hs5	0.941	0.88616	0.868	0.854	0.784	0.762	0.746	0.719	0.751
100 µM, coculture fibroblast: Hs27A	0.8647	0.835	0.773	0.774	0.715	0.7	0.659	0.639	0.596
100 µM, coculture fibroblast: Hs343T	0.9233	0.87	0.917	0.969	0.8801	0.8633	0.839	0.829	0.812
100 µM, coculture fibroblast: WS1	0.858	0.838	0.8	0.748	0.716	0.696	0.668	0.65	0.637

Source: the supplement of paper PMC6078165
